Test results: PubChem BioAssay AID504847 (National Center for Advancing Translational Sciences (NCATS), 2011)
Out of some 400,000 compounds screened, about 3,700 (0.93%) were called active. This list was built around the results that the source calls inconclusive (neither active nor inactive); the mix of calls is not that of the screen. Calls come from the whole dose curve; as a rule, active = well fitted inhibition curve with a large enough effect; inconclusive = small, poorly fitted or top-dose-only effect, or another doubt; inactive = no such curve, though single readings can be large or run the other way. Potencies beside an inconclusive call are fits to weak or partial responses and may not hold up.

Chains of the proteins cited; added tags and fusions are not shown. Lines headed by an entry give the natural chain unless they say otherwise; changes in a name come on top.
UniProt P11473: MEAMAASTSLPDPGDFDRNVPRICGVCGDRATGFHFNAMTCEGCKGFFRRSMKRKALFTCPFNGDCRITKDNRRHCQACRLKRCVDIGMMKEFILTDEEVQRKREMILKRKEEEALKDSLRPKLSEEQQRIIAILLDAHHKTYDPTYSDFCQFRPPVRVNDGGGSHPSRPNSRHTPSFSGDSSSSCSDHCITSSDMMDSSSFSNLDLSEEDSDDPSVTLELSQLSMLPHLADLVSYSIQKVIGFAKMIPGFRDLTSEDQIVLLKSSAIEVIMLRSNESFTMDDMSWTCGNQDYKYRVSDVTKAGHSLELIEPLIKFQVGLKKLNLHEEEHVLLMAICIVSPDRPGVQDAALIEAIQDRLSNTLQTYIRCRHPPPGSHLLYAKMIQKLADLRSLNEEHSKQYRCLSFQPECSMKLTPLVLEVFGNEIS

Each compound was assayed against Vitamin D3 receptor (Homo sapiens) (UniProt P11473) (assay: Inhibitors of the vitamin D receptor (VDR): qHTS). Details: VDR-SRC2-3 peptide fluorescence polarization, 2 h; max response, negative = inhibition: active compounds read low.
Procedure, shortened: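 VDR–SRC2-3 interaction, FP format. Cmpds 23 nl via pintool, brief spin, 2 h ambient incubation.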
% is set by controls: 0 for no effect and ±100 for the full control effect; potency is the fitted concentration of half-maximal effect.

Row | SMILES | max response, negative = inhibition | Potency
1 | Cc1nc2c3ccccc3nc(NNC(=O)CCC(=O)N3CCN(c4cccc(C(F)(F)F)c4)CC3)n2n1 | inactive: -4.73% | 
2 | COc1ccc(CNc2ccnc(-c3cccnc3)n2)c(OC)c1 |  | inconclusive: 35.5 µM [inhibitor, partial curve, poor fit]
3 | COc1cccc(N2CCN(C(=O)CN3C(=O)COc4ccc(S(=O)(=O)N5CCC(C)CC5)cc43)CC2)c1 | inactive: 14.7% | 
4 | N#Cc1cccc(OC(=O)c2ccc3c(=O)n4c(nc3c2)CCC4)c1 |  | inconclusive: 14.1 µM [inhibitor, partial curve]
5 | Nc1nonc1-n1nnc(C(=O)N/N=C/c2ccccc2F)c1CN1CCc2ccccc21 |  | inconclusive: 31.6 µM [inhibitor, partial curve, poor fit]
6 | COc1ccc(N2CCN(C(=O)/C(C#N)=C/c3ccccc3)CC2)cc1 |  | inconclusive: 89.1 µM [inhibitor, partial curve, poor fit]
7 | O=C(Nc1nccs1)C1CCCN1S(=O)(=O)c1cccc2cccnc12 (stereo not given) |  | inconclusive: 89.1 µM [inhibitor, partial curve, poor fit]
8 | COC(=O)c1cc(C#N)c(NCc2ccccc2)nc1C |  | inconclusive: 1.12 µM [inhibitor, full curve, poor fit]
9 | O=C(O)c1cccc(-n2cccc2/C=C2/SC(=O)N(CC(=O)N3CCCC3)C2=O)c1 | inactive: 8.3% | 
10 | O=C1NC(c2ccccc2)Nc2c1sc(=S)n2-c1ccccc1 (stereo not given) | inactive: -6.36% | 
11 | COc1ccc(CCN(C)C(=O)CN2C(=O)c3ccccc3S2(=O)=O)cc1OC |  | inconclusive: 79.4 µM [inhibitor, partial curve, poor fit]
12 | O=C(N/N=C/c1ccc(F)cc1)c1cc(-c2ccccn2)nc2ccccc12 | inactive: -7.22% | 
13 | CCc1nc(SCC(=O)Nc2cc(C)ccc2OC)c2c(C)c(C)sc2n1 |  | inconclusive: 100 µM [inhibitor, single point]
14 | COc1ccc2[nH]cc(CCNc3ncnc4ccc(-c5ccccc5C#N)cc34)c2c1 | inactive: -6.45% | 
15 | CCCc1c(OCCCOc2ccc(OCC(=O)O)cc2)ccc(C(C)=O)c1O |  | active: 50.1 µM
16 | COc1cccc(Oc2cn[nH]c2-c2ccc(OC)cc2O)c1 |  | inconclusive: 89.1 µM [inhibitor, single point]
17 | CC1CCC(NC(=O)Cn2ncc3c4ccccc4n(Cc4ccc(F)cc4)c3c2=O)CC1 (stereo not given) | inactive: 15.2% | 
18 | CCNc1nc(C#N)nc(N2CCCCC2)n1 |  | inconclusive: 79.4 µM [inhibitor, partial curve, poor fit]
19 | CC1=C(C(=O)O)N2C(=O)[C@@H](NC(=O)[C@H](N)c3ccccc3)[C@H]2SC1 |  | inconclusive: 50.1 µM [inhibitor, partial curve, poor fit]
20 | O=C(Nc1ccc(-c2n[nH]c(=S)o2)cc1)c1ccccc1Br |  | inconclusive: 100 µM [inhibitor, partial curve, poor fit]
21 | O=C(/C=C/Nc1ccccc1)C(F)(F)F |  | inconclusive: 89.1 µM [inhibitor, single point]
22 | COc1ccc(/C=C/C(=O)Nc2ccc3nc4c(c(Nc5ccc(OC)c(OC)c5)c3c2)CCCC4)cc1 | inactive: 53.4% | 

Row | SMILES | max response, negative = inhibition | Potency
23 | Oc1ccc(CNc2ccccc2)c2cccnc12 |  | inconclusive: 31.6 µM [inhibitor, full curve, poor fit]
24 | O=C(c1ccccc1)N1CCc2[nH]nc(-c3ccccc3)c2C1 | inactive: -2.15% | 
25 | COC(=O)Cn1c(=O)c2c(n(Cc3ccccc3)c1=O)N/C(=C/c1ccc(Br)cc1)C2=O |  | inconclusive: 79.4 µM [inhibitor, partial curve, poor fit]
26 | Nc1cccnc1Sc1cccc(Cl)c1 |  | inconclusive: 89.1 µM [inhibitor, single point]
27 | CCO[C@@H]1OC(C(=O)N2CCN(Cc3ccc4c(c3)OCO4)CC2)=C[C@H](c2ccc3c(c2)OCO3)[C@H]1CCCO |  | inconclusive: 89.1 µM [inhibitor, partial curve, poor fit]
28 | COc1ccc(-c2cc(C(=O)N/N=C/c3cccnc3)c3ccccc3n2)cc1 |  | inconclusive: 0.708 µM [inhibitor, full curve, poor fit]
29 | S=C(NCc1ccccc1)N1CCN(C2CCCCC2)CC1 |  | inconclusive: 22.4 µM [inhibitor, partial curve, poor fit]
30 | COc1ccc(CNC(=O)C2CCCN(S(=O)(=O)N3CC(C)CC(C)C3)C2)c(OC)c1 (stereo not given) | inactive: -0.233% | 
31 | N#Cc1ccccc1S(=O)(=O)N1CCN(Cc2c(O)ccc3ccccc23)CC1 |  | inconclusive: 63.1 µM [inhibitor, partial curve, poor fit]
32 | NS(=O)(=O)c1ccc(NC(=S)NCc2ccco2)cc1 |  | inconclusive: 89.1 µM [inhibitor, single point]
33 | CC1=CC(=O)C(C(C)C)=C/C1=C(\c1cc(C(C)C)c(OP(=O)(O)O)cc1C)c1ccccc1C(=O)O |  | inconclusive: 70.8 µM [inhibitor, single point]
34 | NC(=O)C1CCN(CC(=O)Nc2ccccn2)CC1 |  | inconclusive: 89.1 µM [inhibitor, partial curve, poor fit]
35 | CCN(CC)CCOc1c(Br)ccc2c1sc1nc3n(c(=O)c12)CCC3 | inactive: -10.3% | 
36 | COc1cccc(-c2nn(-c3ccccc3)cc2CN(C)Cc2c(C)nc3ccccn23)c1 | inactive: 14.9% | 
37 | COc1ccc(Br)cc1/C=C/C(=O)c1ccc(NC(C)=O)cc1 |  | inconclusive: 50.1 µM [inhibitor, partial curve]
38 | COC(=O)C1=C(C)N(c2cccc(OC)c2)C(=O)/C1=C\c1ccco1 |  | inconclusive: 89.1 µM [inhibitor, single point]
39 | Cc1ccc(C)n1-c1nc(=S)[nH][nH]1 |  | active: 31.6 µM
40 | CCSc1cc(C2C(C(=O)OC)=C(C)NC3=C2C(=O)CCC3)c(C)o1 (stereo not given) | inactive: -14.3% | 
41 | Cc1cc(CNC(=O)COc2c(F)c(F)cc(F)c2F)c2ccccc2n1 | inactive: -4.46% | 
42 | COc1ccc2c(-c3ccccc3)cc(=S)[nH]c2c1 |  | inconclusive: 89.1 µM [inhibitor, single point]
43 | CCOc1ccc2cc(C3CC(c4ccco4)=NN3S(C)(=O)=O)c(=O)[nH]c2c1 (stereo not given) |  | inconclusive: 22.4 µM [inhibitor, single point]
44 | CC(C)CCSc1nc(N)c(C#N)cc1C#N | inactive: 24.4% | 

Row | SMILES | max response, negative = inhibition | Potency
45 | O=C1N=c2ccc(Br)cc2=C1c1sc(=S)n(NS(=O)(=O)c2ccccc2)c1O |  | inconclusive: 56.2 µM [inhibitor, partial curve, poor fit]
46 | C=CCN(C(=O)CSc1nnnn1C)c1nc(-c2ccccc2)cs1 |  | inconclusive: 89.1 µM [inhibitor, single point]
47 | Cc1ccc(C)c(NC(=O)CN(C)C(=O)CN2C(=O)NC3(CCc4ccccc43)C2=O)c1 (stereo not given) | inactive: -2.41% | 
48 | CCC(CO)Oc1cc(NC(=O)c2ccc(F)cc2)c2ncn(C(C)C)c2c1 (stereo not given) |  | inconclusive: 70.8 µM [inhibitor, single point]
49 | Cc1ccc(-n2nc(-c3ccco3)cc2C(=O)NCc2cccnc2)cc1 |  | active: 70.8 µM
50 | CC1CCN(C(=O)CN2C(=O)C(=O)c3ccccc32)CC1 |  | inconclusive: 89.1 µM [inhibitor, single point]
51 | O=C(COC(=O)c1cccnc1Cl)NC1CCCc2ccccc21 (stereo not given) |  | inconclusive: 2.51 µM [inhibitor, partial curve, poor fit]
52 | CCN1CCN(CCCNC(=O)Cn2c(-c3cccs3)cc3cc(F)ccc32)CC1 | inactive: 9.72% | 
53 | CCOC(=O)N1CCc2c(sc(NCc3cccs3)c2C(=O)Nc2ccc(OC)cc2OC)C1 |  | inconclusive: 25.1 µM [inhibitor, single point]
54 | C[C@]12c3[nH]c4cc(-c5ccco5)ccc4c3CCN1C(=O)[C@@H](CC(=O)NCCC1=CCCCC1)C[C@@H]2C(=O)N1CCCCC1 |  | inconclusive: 79.4 µM [inhibitor, single point]
55 | CC(C)Cc1c2c([nH]c(=S)c1C#N)CCCC2 |  | inconclusive: 89.1 µM [inhibitor, single point]
56 | COc1cc(/C=C2\SC(N3CCc4ccccc4C3)=NC2=O)cc(OC)c1OC |  | inconclusive: 89.1 µM [inhibitor, single point]
57 | CCCS(=O)(=O)c1nnnn1-c1cccc(OC)c1 |  | inconclusive: 56.2 µM [inhibitor, partial curve, poor fit]
58 | COc1ccc(C(=O)N/N=C/c2ccc(N3CCOCC3)o2)cc1OC |  | inconclusive: 56.2 µM [inhibitor, partial curve, poor fit]
59 | CC(=O)c1ccc(CCCCc2ccc(C(C)=O)cc2)cc1 | inactive: -12.5% | 
60 | Cc1ccc(NC(=O)C(Cc2ccccc2)N2Cc3ccccc3C2=O)cc1Cl (stereo not given) | inactive: 8.01% | 
61 | COc1cc(NC(C)CCc2ccccc2)cc(OC)c1OC (stereo not given) |  | inconclusive: 56.2 µM [inhibitor, partial curve, poor fit]
62 | Cc1cc(SCC(=O)NN=C2CCN(C(C)C)CC2)c(C)cc1Br | inactive: -11.9% | 
63 | CSc1cccc(NC(=S)N(CCCN2CCCC(C)C2)Cc2cccs2)c1 (stereo not given) |  | inconclusive: 70.8 µM [inhibitor, single point]
64 | Cc1ccc(S(=O)(=O)N[C@H](C(=O)Oc2ccc3c(C(F)(F)F)cc(=O)oc3c2)c2ccccc2)cc1 |  | inconclusive: 89.1 µM [inhibitor, single point]
65 | CC(=O)N(C1=C(Cl)C(=O)c2ccccc2C1=O)c1ccc(C(=O)O)cc1 |  | active: 7.08 µM

4 entries picked at random from the list so far, as already listed:
Row | SMILES | max response, negative = inhibition | Potency
60 | Cc1ccc(NC(=O)C(Cc2ccccc2)N2Cc3ccccc3C2=O)cc1Cl (stereo not given) | inactive: 8.01% | 
49 | Cc1ccc(-n2nc(-c3ccco3)cc2C(=O)NCc2cccnc2)cc1 |  | active: 70.8 µM
45 | O=C1N=c2ccc(Br)cc2=C1c1sc(=S)n(NS(=O)(=O)c2ccccc2)c1O |  | inconclusive: 56.2 µM [inhibitor, partial curve, poor fit]
56 | COc1cc(/C=C2\SC(N3CCc4ccccc4C3)=NC2=O)cc(OC)c1OC |  | inconclusive: 89.1 µM [inhibitor, single point]
